{
  "sequences": {"note": "The chains behind the UniProt entries cited, without tags or fusion partners. Residues count along the entry.", "UniProt P16473, 21-764": "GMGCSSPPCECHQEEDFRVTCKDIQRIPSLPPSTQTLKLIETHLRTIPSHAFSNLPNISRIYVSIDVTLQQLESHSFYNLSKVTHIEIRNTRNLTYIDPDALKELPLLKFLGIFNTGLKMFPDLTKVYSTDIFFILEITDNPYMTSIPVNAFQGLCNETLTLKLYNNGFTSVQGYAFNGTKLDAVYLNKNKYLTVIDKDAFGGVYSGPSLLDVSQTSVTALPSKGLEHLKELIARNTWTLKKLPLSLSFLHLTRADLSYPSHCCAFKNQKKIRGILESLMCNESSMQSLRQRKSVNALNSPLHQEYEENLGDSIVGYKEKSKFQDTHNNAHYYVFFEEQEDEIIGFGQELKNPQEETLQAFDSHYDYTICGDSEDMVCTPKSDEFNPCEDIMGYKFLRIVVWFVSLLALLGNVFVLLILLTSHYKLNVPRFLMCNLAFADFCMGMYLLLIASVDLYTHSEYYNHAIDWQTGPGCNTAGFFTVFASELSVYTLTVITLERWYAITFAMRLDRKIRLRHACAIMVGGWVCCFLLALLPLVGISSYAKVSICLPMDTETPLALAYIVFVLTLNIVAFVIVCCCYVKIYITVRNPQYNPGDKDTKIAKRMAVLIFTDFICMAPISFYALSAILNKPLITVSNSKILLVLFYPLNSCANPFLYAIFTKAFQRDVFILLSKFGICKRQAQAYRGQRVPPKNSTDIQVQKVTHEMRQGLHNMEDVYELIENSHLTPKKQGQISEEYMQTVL", "UniProt P16473, 21-764 N170A/K218A/D219A/K244A": "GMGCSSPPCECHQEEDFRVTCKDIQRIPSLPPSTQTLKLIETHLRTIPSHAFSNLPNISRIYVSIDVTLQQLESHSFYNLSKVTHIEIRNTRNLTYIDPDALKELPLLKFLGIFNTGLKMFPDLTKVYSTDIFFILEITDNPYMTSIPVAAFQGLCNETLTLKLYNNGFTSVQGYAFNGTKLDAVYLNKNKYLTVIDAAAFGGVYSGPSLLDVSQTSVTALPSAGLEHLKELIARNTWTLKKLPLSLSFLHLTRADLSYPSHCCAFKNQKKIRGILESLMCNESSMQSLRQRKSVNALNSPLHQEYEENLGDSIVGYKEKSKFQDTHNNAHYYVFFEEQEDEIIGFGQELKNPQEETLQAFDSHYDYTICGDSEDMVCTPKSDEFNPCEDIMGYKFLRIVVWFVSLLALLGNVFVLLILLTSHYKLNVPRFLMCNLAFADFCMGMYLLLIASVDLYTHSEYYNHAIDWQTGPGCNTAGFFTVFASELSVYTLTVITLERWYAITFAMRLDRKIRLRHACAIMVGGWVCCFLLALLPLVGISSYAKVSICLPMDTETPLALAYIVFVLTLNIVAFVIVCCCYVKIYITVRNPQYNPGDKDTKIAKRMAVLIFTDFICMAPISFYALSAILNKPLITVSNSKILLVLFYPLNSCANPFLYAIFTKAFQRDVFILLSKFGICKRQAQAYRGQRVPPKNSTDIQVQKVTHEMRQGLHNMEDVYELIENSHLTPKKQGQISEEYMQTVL", "UniProt P16473, 21-764 K218A": "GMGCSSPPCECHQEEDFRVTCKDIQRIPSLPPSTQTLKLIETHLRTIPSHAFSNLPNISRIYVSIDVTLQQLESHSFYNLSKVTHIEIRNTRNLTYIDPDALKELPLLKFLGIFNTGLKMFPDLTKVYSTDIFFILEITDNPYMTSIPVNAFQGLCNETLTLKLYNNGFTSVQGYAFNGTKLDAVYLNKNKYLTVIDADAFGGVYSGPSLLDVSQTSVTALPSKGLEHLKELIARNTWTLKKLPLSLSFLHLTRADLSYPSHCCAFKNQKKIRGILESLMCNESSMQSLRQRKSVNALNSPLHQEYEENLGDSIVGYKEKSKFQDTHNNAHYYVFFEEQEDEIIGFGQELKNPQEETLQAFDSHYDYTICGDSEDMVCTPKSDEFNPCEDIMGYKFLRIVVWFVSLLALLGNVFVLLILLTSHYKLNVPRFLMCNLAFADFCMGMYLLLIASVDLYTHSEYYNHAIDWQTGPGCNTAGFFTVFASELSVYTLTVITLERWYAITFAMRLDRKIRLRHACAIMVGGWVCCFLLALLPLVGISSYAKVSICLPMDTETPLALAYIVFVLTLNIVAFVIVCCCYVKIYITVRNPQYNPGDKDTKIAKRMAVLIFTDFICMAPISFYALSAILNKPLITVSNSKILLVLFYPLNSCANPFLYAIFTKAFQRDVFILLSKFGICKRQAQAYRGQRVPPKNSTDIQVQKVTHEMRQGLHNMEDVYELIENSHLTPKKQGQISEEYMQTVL"},
  "source": "paper PMC12822413",
  "key": {"[1]": {"molecular_target": "TSHR on TSHR-293T cells (Homo sapiens) (UniProt P16473)", "test": "flow cytometry", "details": "Flow: DPBS, 5 mM MgCl2, 4.5 g/L glucose, 0.1 mg/mL yeast tRNA, 1 mg/mL BSA, 4 C 30 min, protein on the cell surface"}, "[2]": {"molecular_target": "TSHR on TSHR-293T cells (Homo sapiens) (UniProt P16473)", "test": "competition with a labelled probe", "details": "protein on the cell surface"}, "[3]": {"molecular_target": "TSHR quadruple alanine mutant N170A,K218A,D219A,K244A (Homo sapiens) (UniProt P16473)", "test": "flow cytometry", "details": "most reduced of all mutants; Flow: DPBS, 5 mM MgCl2, 4.5 g/L glucose, 0.1 mg/mL yeast tRNA, 1 mg/mL BSA, 4 C 30 min; protein on the cell surface; folded or branched DNA"}, "[4]": {"molecular_target": "TSHR K218A (Homo sapiens) (UniProt P16473)", "test": "flow cytometry", "details": "largest decrease among single mutants; Flow: DPBS, 5 mM MgCl2, 4.5 g/L glucose, 0.1 mg/mL yeast tRNA, 1 mg/mL BSA, 4 C 30 min; protein on the cell surface; folded or branched DNA"}, "[5]": {"molecular_target": "endogenous TSHR on Nthy-ori 3-1 cells (Homo sapiens) (UniProt P16473)", "test": "flow cytometry", "details": "binding decreased by TSHR siRNA; Flow: DPBS, 5 mM MgCl2, 4.5 g/L glucose, 0.1 mg/mL yeast tRNA, 1 mg/mL BSA, 4 C 30 min; protein on the cell surface; folded or branched DNA"}, "TSHR-LRD": {"system": "TSHR-LRD", "test": "circular dichroism", "details": "YC3 titration lowers 215 nm ellipticity; recombinant protein; folded or branched DNA"}, "[6]": {"molecular_target": "TSHR in membrane protein extract of TSHR-293T cells (Homo sapiens) (UniProt P16473)", "test": "pull-down", "details": "biotin-YC3, no TSHR with beads alone or library; protein in a lysate after overexpression; folded or branched DNA"}, "[7]": {"details": "500 nM aptamer, label: FAM, folded or branched DNA"}, "[8]": {"details": "250 nM aptamer, no binding to MOCK cells, label: FAM, single-stranded DNA"}, "[9]": {"details": "250 nM aptamer, not among the more intense binders, label: FAM, single-stranded DNA"}},
  "note": "For at least one entry, the source does not settle the construct or the ends of the probe. For some of these results: At least one result comes from cells or an extract, where the contact may be indirect. For some of these results: The comparison behind a weaker result is the experiment's own reference, which may not be listed here.",
  "data": [
    {"sequence": "ACCGACCGTGCGATGAACAATCGATGGAAGATTGGGTCGCACCGGCCTCTTTCACTATGAGCGAGCCTGGCG [YC3-a]", "values": [
      {"measurement": "binding result", "setting": "[1]; [7]", "result": "binds more weakly"}
    ]},
    {"sequence": "ACCGACCGTGCTGGACTCAATCCATCGTCGACGAGCATACGAAGGGAGGGTATTGTAAGGGACTATGAGCGAGCCTGGCG [YC2]", "values": [
      {"measurement": "binding result", "setting": "[1]; [8]", "result": "binds"}
    ]},
    {"sequence": "ACCGACCGTGCTGGACTCAGACGGAATCGTCCTTTGTCTACGTGCGGTCTAGACTGTATAGACTATGAGCGAGCCTGGCG [YC5]", "values": [
      {"measurement": "binding result", "setting": "[1]; [9]", "result": "binds"}
    ]},
    {"sequence": "ACCGACCGTGCTGGACTCAGATGAACAATCGATGGAAGATTGGGTCGCACCGGCCTCTTTCACTATGAGCGAGCCTGGCG [PS-YC3-PEG]", "values": [
      {"measurement": "binding result", "setting": "[1]; binding not compromised versus YC3, phosphorothioate at 5 nucleotides of each terminus, 3' thiol coupled to 10 kDa maleimide-PEG, label: FAM or none, synthetic backbone", "result": "binds"},
      {"measurement": "binding result", "setting": "[2]; excess unlabeled PS-YC3-PEG inhibits FAM-YC3, phosphorothioate at 5 nucleotides of each terminus, 3' thiol coupled to 10 kDa maleimide-PEG, label: FAM or none, synthetic backbone", "result": "binds"}
    ]},
    {"sequence": "ACCGACCGTGCTGGACTCAGATGAACAATCGATGGAAGATTGGGTCGCACCGGCCTCTTTCACTATGAGCGAGCCTGGCG [YC3]", "values": [
      {"measurement": "binding result", "setting": "[3]", "result": "binds more weakly"},
      {"measurement": "binding result", "setting": "[4]", "result": "binds more weakly"},
      {"measurement": "binding result", "setting": "[5]", "result": "binds"},
      {"measurement": "binding result", "setting": "[1]; 37 C, stronger signal than at 4 C, folded or branched DNA", "result": "binds"},
      {"measurement": "binding result", "setting": "TSHR-LRD", "result": "binds"},
      {"measurement": "binding result", "setting": "[2]; excess M22 antibody does not inhibit YC3 binding, folded or branched DNA", "result": "binds"},
      {"measurement": "binding result", "setting": "[2]; excess unlabeled YC3 inhibits FAM-PS-YC3-PEG, folded or branched DNA", "result": "binds"},
      {"measurement": "binding result", "setting": "[6]", "result": "binds"}
    ]},
    {"sequence": "ACCGACCGTGCTGGACTCAGATGAACTGGGTCGCACCGGCCTCTTTCACTATGAGCGAGCCTGGCG [YC3-b]", "values": [
      {"measurement": "binding result", "setting": "[1]; [7]", "result": "binds more weakly"}
    ]},
    {"sequence": "ACCGACCGTGCTGGACTCAGCCGTGACGTTCTACAGAGAACGGGTGGACCCGCCTCCTCACTATGAGCGAGCCTGGCG [YC8]", "values": [
      {"measurement": "binding result", "setting": "[1]; [8]", "result": "binds"}
    ]},
    {"sequence": "ACCGACCGTGCTGGACTCAGCCGTGACGTTCTACAGAGAACGGGTGGATCCCGCCTCTTCACTATGAGCGAGCCTGGCG [YC6]", "values": [
      {"measurement": "binding result", "setting": "[1]; [8]", "result": "binds"}
    ]},
    {"sequence": "ACCGACCGTGCTGGACTCAGGGCGCATCTTTGGTAAGCAAAGATGGGTTGCAAGCCTCTCGACTATGAGCGAGCCTGGCG [YC1]", "values": [
      {"measurement": "binding result", "setting": "[1]; [8]", "result": "binds"}
    ]},
    {"sequence": "ACCGACCGTGCTGGACTCAGGGTGGGTCGTTTCATAGGAAACGGGTGGAACGCCTCTAGCCACTATGAGCGAGCCTGGCG [YC4]", "values": [
      {"measurement": "binding result", "setting": "[1]; [9]", "result": "binds"}
    ]},
    {"sequence": "ACCGACCGTGCTGGACTCATGGTCACATCTATCGTACTAGCATGGGTCAATTGGCCTCTTGACTATGAGCGAGCCTGGCG [YC7]", "values": [
      {"measurement": "binding result", "setting": "[1]; [8]", "result": "binds"}
    ]}
  ]
}
